Laboratory results: the supplement of paper PMC12819154, “High-throughput peptide-centric local stability assay extends protein–ligand identification to membrane proteins, tissues and bacteria” (Nature Structural & Molecular Biology, 2025)
This is one part of the list. Most values lie at the level of the controls, where differences are scatter.

The chains behind the UniProt entries cited, without tags or fusion partners. Where a name states a change or a piece, a line headed by the entry shows the natural chain unless it says otherwise.
UniProt B2RXA1: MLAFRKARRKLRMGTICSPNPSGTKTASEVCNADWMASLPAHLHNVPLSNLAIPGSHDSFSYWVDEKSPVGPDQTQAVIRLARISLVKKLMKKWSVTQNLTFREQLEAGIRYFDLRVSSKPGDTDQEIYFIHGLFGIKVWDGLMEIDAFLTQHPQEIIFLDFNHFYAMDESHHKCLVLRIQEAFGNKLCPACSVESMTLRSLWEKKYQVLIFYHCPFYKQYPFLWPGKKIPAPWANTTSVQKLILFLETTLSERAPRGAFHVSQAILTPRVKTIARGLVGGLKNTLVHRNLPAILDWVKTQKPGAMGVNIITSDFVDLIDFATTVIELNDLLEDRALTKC
UniProt O35454: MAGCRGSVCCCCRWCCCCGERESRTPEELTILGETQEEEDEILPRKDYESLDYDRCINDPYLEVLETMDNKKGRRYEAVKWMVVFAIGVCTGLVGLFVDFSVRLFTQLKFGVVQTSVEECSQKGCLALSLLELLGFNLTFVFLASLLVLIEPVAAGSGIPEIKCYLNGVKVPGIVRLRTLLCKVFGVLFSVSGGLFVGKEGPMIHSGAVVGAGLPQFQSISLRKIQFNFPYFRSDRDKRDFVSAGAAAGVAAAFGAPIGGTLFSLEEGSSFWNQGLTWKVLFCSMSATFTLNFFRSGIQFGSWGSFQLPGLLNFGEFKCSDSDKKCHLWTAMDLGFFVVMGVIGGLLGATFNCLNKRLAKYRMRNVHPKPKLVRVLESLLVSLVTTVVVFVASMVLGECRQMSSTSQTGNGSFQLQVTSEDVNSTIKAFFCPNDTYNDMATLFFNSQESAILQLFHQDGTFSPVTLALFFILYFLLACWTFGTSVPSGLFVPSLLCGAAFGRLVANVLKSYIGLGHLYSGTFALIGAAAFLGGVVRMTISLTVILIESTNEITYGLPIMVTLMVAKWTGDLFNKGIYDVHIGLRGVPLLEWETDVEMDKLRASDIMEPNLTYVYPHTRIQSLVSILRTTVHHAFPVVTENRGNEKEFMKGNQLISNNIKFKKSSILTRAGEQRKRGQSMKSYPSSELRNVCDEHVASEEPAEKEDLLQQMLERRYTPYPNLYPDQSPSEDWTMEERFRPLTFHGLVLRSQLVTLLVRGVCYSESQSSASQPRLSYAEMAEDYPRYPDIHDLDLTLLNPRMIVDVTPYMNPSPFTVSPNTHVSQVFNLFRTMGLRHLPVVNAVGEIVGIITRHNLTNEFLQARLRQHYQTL
UniProt O08717: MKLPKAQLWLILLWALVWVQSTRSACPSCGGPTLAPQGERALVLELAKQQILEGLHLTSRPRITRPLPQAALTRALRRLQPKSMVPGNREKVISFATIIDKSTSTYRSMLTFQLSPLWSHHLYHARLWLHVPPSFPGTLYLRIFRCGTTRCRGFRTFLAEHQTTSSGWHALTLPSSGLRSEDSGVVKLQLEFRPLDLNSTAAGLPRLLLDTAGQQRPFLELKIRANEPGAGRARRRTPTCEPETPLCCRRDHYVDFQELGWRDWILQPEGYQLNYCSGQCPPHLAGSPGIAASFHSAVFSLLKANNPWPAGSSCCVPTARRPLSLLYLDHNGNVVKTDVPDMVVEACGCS
UniProt O35188: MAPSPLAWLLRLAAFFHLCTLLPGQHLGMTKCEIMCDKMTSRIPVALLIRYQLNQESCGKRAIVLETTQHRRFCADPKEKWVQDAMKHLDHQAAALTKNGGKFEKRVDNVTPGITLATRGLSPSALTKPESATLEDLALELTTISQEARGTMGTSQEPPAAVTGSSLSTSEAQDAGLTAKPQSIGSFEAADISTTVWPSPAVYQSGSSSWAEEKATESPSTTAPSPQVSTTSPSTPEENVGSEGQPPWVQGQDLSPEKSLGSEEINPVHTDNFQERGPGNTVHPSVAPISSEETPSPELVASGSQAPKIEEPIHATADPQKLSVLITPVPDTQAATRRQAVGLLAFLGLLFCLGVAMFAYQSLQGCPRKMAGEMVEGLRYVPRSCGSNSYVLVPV
UniProt O08579: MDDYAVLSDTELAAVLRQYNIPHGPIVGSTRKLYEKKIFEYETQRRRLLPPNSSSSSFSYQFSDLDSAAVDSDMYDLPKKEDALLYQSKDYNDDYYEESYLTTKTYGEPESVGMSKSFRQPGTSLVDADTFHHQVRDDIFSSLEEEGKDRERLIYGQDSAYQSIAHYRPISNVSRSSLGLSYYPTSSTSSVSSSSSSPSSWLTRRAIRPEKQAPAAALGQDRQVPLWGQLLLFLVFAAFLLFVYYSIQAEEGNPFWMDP

Compound: CN[C@@H]1C[C@H]2O[C@@](C)([C@@H]1OC)n1c3ccccc3c3c4c(c5c6ccccc6n2c5c31)C(=O)NC4 [staurosporine]
Assay: log2 fold change of tryptic peptide abundance, ligand vs vehicle (limited proteolysis) (log2 ratio); higher = more trypsin-susceptible (destabilized)
Conditions: ligand concentration: 20 uM; sample: mouse liver crude lysate; replicate design: treated separately

Target	log2 fold change
UniProt B2RXA1 (peptide sequence: MGTICSPNPSGTK, peptide start residue: 13)	0.323
UniProt O35454 (peptide sequence: KDYESLDYDR, peptide start residue: 46)	-0.39
UniProt O08717 (peptide sequence: QQILEGLHLTSRPR, peptide start residue: 49)	-0.218
UniProt O35188 (peptide sequence: IPVALLIR, peptide start residue: 43)	0.235
UniProt O08579 (peptide sequence: IFEYETQRR, peptide start residue: 38)	0.868
